Measured values published in the supplement of paper PMC10849652.
The other results are listed elsewhere or left out.

Chains of the proteins cited; added tags and fusions are not shown. Lines headed by an entry give the natural chain unless they say otherwise; changes in a name come on top.
UniProt Q9UBX3: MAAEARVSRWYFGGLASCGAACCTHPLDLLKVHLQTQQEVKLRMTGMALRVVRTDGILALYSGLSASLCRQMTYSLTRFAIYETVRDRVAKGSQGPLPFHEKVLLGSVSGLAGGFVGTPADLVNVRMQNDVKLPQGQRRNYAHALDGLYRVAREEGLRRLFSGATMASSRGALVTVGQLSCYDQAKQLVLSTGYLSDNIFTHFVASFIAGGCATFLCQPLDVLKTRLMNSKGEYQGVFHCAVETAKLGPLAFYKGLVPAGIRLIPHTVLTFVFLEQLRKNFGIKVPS
UniProt Q9H0C2: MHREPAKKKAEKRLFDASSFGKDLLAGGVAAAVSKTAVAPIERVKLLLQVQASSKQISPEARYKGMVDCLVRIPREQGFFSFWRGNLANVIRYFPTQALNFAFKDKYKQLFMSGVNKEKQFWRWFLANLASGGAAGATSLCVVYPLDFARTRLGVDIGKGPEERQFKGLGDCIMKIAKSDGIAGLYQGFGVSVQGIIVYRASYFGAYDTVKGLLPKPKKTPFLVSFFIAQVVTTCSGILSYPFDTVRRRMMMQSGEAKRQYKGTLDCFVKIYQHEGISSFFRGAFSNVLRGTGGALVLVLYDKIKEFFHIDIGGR
UniProt Q96EP9: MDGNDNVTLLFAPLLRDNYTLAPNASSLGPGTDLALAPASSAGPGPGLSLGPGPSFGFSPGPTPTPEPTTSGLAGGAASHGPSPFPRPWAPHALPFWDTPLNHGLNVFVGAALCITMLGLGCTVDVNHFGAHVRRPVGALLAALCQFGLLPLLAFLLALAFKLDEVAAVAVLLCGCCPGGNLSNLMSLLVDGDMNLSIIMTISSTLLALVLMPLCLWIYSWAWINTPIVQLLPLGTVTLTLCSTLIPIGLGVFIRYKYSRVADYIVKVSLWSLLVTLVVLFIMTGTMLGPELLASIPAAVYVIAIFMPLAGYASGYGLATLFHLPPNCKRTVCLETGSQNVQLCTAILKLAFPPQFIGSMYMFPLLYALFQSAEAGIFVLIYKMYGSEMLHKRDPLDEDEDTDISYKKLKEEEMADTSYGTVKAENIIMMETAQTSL
UniProt Q8WUX1, whole entry, looked up: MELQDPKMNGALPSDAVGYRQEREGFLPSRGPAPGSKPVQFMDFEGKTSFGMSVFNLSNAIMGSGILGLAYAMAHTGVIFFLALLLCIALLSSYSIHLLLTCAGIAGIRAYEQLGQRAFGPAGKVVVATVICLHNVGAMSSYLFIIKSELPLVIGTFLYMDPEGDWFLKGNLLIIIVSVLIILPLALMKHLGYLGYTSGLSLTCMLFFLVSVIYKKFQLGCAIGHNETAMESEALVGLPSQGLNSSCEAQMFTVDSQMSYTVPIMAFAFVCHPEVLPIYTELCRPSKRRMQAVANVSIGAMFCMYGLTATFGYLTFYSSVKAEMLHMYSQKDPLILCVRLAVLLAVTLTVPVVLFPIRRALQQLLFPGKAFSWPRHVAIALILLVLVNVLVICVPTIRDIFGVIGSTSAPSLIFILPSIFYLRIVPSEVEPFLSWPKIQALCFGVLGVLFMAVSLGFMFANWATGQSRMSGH
UniProt Q14542: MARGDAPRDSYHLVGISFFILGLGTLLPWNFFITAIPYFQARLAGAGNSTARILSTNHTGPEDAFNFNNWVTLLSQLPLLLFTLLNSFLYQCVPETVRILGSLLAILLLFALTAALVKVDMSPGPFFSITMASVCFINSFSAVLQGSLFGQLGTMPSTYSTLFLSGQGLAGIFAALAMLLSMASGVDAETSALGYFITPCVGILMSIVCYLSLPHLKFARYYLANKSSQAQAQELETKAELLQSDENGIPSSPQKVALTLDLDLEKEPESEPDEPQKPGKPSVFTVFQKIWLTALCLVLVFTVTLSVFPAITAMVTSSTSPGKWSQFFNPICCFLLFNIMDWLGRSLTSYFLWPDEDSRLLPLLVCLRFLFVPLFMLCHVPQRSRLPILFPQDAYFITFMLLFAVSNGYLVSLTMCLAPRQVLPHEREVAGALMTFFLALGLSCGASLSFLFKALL
UniProt P05141: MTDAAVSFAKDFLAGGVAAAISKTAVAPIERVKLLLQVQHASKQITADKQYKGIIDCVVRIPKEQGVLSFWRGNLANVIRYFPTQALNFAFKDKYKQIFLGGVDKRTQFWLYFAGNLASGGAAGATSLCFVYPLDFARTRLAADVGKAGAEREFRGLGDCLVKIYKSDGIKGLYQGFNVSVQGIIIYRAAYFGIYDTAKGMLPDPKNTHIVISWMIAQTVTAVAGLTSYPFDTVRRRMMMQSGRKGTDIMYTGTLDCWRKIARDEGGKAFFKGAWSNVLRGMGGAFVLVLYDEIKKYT
UniProt Q9UJS0: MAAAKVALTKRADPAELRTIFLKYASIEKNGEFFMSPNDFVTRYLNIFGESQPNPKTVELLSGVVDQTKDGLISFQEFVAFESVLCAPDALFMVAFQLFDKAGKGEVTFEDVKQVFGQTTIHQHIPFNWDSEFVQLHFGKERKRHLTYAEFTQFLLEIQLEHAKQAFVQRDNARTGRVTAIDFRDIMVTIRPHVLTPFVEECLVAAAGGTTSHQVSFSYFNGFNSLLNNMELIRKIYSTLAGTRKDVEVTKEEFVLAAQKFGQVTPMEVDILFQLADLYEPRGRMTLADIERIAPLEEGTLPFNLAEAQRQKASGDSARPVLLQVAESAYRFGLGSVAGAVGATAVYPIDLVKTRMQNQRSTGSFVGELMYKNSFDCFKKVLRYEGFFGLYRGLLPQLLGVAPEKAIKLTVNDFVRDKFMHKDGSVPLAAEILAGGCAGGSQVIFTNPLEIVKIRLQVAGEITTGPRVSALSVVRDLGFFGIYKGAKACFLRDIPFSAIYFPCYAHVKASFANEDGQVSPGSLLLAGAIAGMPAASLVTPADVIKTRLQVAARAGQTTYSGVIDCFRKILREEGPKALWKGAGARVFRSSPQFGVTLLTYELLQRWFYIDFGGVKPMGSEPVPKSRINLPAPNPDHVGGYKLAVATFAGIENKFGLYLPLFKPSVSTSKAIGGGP
UniProt P78381: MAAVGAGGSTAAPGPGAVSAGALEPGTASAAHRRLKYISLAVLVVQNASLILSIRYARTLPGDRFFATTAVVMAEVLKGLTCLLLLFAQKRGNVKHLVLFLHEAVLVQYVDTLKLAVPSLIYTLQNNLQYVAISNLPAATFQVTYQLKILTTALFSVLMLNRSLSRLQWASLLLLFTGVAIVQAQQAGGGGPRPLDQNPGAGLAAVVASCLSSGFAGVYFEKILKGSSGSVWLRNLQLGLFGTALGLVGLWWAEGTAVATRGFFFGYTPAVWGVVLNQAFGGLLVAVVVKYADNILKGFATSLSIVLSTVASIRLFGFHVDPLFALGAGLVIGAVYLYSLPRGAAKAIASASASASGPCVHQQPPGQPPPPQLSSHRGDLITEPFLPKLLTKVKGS
UniProt Q6NXT4: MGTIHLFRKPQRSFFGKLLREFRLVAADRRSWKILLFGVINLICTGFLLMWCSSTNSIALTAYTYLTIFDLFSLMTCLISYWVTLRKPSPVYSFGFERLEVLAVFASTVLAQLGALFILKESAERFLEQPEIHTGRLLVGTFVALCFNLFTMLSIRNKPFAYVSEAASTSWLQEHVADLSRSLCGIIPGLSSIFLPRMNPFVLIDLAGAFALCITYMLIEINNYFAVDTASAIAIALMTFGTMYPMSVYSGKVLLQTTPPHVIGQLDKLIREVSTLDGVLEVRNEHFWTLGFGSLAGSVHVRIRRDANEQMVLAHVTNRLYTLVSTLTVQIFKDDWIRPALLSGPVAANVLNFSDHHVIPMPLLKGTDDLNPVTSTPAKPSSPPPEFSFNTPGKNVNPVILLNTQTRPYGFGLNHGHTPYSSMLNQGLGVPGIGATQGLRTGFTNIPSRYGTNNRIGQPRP
UniProt O43808: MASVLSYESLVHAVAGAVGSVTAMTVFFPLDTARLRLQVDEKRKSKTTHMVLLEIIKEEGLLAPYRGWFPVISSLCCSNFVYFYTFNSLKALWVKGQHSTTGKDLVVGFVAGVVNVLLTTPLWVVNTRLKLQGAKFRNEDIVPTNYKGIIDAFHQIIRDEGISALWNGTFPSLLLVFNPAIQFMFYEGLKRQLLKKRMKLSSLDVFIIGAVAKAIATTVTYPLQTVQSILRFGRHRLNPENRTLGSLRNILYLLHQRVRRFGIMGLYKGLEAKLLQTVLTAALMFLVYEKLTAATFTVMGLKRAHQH
UniProt Q9NYZ2: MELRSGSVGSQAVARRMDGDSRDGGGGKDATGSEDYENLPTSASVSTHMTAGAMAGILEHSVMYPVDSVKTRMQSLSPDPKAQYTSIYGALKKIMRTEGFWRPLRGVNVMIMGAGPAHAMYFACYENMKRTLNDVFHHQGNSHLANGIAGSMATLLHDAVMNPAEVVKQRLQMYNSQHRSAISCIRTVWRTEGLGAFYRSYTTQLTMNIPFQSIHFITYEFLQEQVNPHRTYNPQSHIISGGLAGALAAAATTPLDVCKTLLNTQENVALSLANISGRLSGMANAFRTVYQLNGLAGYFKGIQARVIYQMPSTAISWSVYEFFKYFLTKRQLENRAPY
UniProt Q9H2H9: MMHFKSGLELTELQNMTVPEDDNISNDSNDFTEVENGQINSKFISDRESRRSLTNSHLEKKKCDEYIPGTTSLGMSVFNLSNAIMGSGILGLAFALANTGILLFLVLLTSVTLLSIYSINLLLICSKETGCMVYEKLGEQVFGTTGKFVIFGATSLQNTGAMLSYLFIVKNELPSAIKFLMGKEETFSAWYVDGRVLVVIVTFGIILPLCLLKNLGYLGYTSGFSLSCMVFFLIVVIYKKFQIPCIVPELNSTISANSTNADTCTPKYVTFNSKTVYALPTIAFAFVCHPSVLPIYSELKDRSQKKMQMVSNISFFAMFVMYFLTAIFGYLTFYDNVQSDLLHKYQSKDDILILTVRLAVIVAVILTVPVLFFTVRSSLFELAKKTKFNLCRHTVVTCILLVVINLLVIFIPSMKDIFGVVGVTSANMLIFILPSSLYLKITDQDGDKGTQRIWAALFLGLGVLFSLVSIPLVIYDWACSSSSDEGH
UniProt P43007: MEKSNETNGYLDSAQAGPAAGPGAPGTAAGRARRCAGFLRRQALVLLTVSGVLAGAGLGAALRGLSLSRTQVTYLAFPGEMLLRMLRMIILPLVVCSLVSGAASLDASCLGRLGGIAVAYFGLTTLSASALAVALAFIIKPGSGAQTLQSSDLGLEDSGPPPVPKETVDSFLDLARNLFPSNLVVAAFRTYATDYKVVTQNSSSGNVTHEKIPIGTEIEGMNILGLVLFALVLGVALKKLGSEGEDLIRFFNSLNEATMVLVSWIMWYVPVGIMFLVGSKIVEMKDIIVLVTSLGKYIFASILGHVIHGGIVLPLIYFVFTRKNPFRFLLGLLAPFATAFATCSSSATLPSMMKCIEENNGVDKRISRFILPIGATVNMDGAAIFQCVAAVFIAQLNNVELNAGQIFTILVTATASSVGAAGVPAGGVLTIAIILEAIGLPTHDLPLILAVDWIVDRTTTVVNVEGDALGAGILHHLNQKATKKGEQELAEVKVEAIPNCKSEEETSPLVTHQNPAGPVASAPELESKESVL
UniProt Q5BKX6: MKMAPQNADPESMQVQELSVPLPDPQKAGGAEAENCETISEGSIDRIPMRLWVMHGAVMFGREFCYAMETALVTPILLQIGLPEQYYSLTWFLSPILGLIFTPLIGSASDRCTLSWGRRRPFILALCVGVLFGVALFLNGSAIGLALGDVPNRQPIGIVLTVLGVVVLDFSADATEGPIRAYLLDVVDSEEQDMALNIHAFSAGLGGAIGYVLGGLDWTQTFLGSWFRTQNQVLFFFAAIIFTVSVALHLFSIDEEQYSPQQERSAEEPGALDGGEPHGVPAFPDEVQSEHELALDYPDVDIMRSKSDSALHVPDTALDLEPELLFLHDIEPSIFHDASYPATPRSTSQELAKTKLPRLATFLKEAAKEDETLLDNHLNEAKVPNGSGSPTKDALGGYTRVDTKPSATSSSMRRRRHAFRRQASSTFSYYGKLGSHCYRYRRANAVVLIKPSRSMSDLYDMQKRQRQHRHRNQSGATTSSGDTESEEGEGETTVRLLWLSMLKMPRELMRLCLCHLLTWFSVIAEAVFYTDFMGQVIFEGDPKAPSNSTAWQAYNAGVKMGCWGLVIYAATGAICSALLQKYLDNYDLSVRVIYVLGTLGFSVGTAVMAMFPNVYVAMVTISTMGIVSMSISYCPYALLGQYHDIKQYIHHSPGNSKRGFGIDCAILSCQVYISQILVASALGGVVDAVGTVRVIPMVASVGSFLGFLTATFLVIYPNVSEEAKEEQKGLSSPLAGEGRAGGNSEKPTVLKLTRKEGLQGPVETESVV
UniProt Q9H936: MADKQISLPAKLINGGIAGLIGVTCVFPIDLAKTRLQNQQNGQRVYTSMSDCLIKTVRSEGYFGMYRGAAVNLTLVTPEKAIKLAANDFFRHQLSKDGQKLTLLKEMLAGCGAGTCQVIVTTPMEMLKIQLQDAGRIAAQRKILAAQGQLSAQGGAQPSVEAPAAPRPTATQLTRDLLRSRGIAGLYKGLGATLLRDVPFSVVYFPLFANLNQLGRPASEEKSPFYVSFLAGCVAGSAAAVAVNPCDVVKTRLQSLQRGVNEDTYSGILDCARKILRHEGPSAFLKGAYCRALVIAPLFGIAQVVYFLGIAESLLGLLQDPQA

Experiments:
Assay in all cases: log2 fold change, soluble protein after heating vs DMSO (PISA); higher = thermal stabilisation; K562 cells, 10 uM, 30 min; active = over 0.2 and 3.5 SD of the protein, either way, in both replicates (recomputed)
[1] = compound: CS(=O)(=O)c1ccc(-c2cnc(N)c(C(=O)Nc3ccccc3)n2)cc1
Method in brief: (§1)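 K562 cells at 2×10^6 cells/mL were given 10 μM compound for 30 min. Aliquots then went through 3 min of heating across 48°C-58°C, were pooled, and were extracted in PBS with 0.5% NP-40 at 4°C, and the supernatant after 21,000xg for 90 min was quantified by TMTpro 16plex LC-MS/MS with channel sums equalised. Thermal stability relative to control samples, from duplicates, is given as log2 fold change.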

crizotinib = compound: C[C@@H](Oc1cc(-c2cnn(C3CCNCC3)c2)cnc1N)c1c(Cl)ccc(F)c1Cl [crizotinib]
Method in brief: as §1

[2] = compound: C[C@@H]1COCCN1C2=NC(=NC(=C2)C3(CC3)S(=O)(=O)C)C4=C5C=CNC5=CC=C4
Method in brief: as §1

[3] = compound: C[C@H](C1=CC=C(C=C1)C(=O)NC2=C3C=CNC3=NC=C2)N
Method in brief: as §1

duvelisib = compound: C[C@H](Nc1ncnc2nc[nH]c12)c1cc2cccc(Cl)c2c(=O)n1-c1ccccc1 [duvelisib]
Method in brief: as §1

gandotinib = compound: Cc1cc(Nc2cc(CN3CCOCC3)c3nc(C)c(Cc4ccc(Cl)cc4F)n3n2)n[nH]1 [gandotinib]
Method in brief: as §1

tozasertib = compound: Cc1cc(Nc2cc(N3CCN(C)CC3)nc(Sc3ccc(NC(=O)C4CC4)cc3)n2)n[nH]1 [tozasertib]
Method in brief: as §1

[4] = compound: Cc1cc(SCc2sc(-c3ccc(C(F)(F)F)cc3)nc2C)ccc1OCC(=O)O
Method in brief: as §1

doramapimod = compound: Cc1ccc(-n2nc(C(C)(C)C)cc2NC(=O)Nc2ccc(OCCN3CCOCC3)c3ccccc23)cc1 [doramapimod]
Method in brief: as §1

ispinesib = compound: Cc1ccc(C(=O)N(CCCN)[C@@H](c2nc3cc(Cl)ccc3c(=O)n2Cc2ccccc2)C(C)C)cc1 [ispinesib]
Method in brief: as §1

bafetinib = compound: Cc1ccc(NC(=O)c2ccc(CN3CC[C@H](N(C)C)C3)c(C(F)(F)F)c2)cc1Nc1nccc(-c2cncnc2)n1 [bafetinib]
Method in brief: as §1

[5] = compound: Cc1cccc(CC(=O)N2CCc3c2ccc(-c2cn(C)c4ncnc(N)c24)c3F)n1
Method in brief: as §1

nilotinib = compound: Cc1cn(-c2cc(NC(=O)c3ccc(C)c(Nc4nccc(-c5cccnc5)n4)c3)cc(C(F)(F)F)c2)cn1 [nilotinib]
Method in brief: as §1

[6] = compound: Cc1nc(Nc2n[nH]c3c2CN(C(=O)N[C@H](CN(C)C)c2ccccc2)C3(C)C)c2sccc2n1
Method in brief: as §1

dasatinib = compound: Cc1nc(Nc2ncc(C(=O)Nc3c(C)cccc3Cl)s2)cc(N2CCN(CCO)CC2)n1 [dasatinib]
Method in brief: as §1

[7] = compound: Cc1ncc(-c2ccnc(Nc3ccc(S(C)(=O)=O)cc3)n2)n1C(C)C
Method in brief: as §1

[8] = compound: Cn1cc(-c2ccc3c(c2)CCN3C(=O)Cc2cccc(C(F)(F)F)c2)c2c(N)ncnc21
Method in brief: as §1

[9] = compound: Cn1cc(-c2ccc3nnc(C(F)(F)c4ccc5ncccc5c4)n3n2)cn1
Method in brief: as §1

tipifarnib = compound: Cn1cncc1[C@@](N)(c1ccc(Cl)cc1)c1ccc2c(c1)c(-c1cccc(Cl)c1)cc(=O)n2C [tipifarnib]
Method in brief: as §1

mubritinib = compound: FC(F)(F)c1ccc(/C=C/c2nc(COc3ccc(CCCCn4ccnn4)cc3)co2)cc1 [mubritinib]
Method in brief: as §1

Measured: log2 fold change

SLC25A10 isoform 2 (UniProt Q9UBX3)
inactive: [1] -0.047 | crizotinib 0.08 | [2] -0.028 | [3] -0.069 | duvelisib -0.038 | gandotinib 0.018 | tozasertib 0.017 | [4] -0.004 | doramapimod -0.04 | ispinesib -0.009 | bafetinib 0.017 | [5] 0.031 | nilotinib -0.02 | [6] 0.008 | dasatinib 0.017 | [7] 0.01 | [8] 0.016 | [9] -0.031 | tipifarnib 0.018 | mubritinib -0.003

SLC25A31 (UniProt Q9H0C2)
inactive: [1] -0.038 | crizotinib 0.057 | [2] -0.02 | [3] -0.107 | duvelisib 0.004 | gandotinib -0.012 | tozasertib 0.007 | [4] -0.026 | doramapimod -0.109 | ispinesib 0.065 | bafetinib -0.061 | [5] -0.004 | nilotinib -0.002 | [6] 0.01 | dasatinib 0.041 | [7] -0.02 | [8] 0.042 | [9] 0.013 | tipifarnib -0.009 | mubritinib 0.02

SLC10A4 (UniProt Q96EP9)
inactive: [1] 0.004 | crizotinib 0.122 | [2] -0.08 | [3] 0.013 | duvelisib 0.07 | gandotinib -0.078 | tozasertib 0.01 | [4] -0.047 | doramapimod 0 | ispinesib -0.569 | bafetinib -0.039 | [5] -0.084 | nilotinib -0.409 | [6] 0.078 | dasatinib 0.099 | [7] -0.166 | [8] 0.096 | [9] -0.007 | tipifarnib 0.109 | mubritinib 0.044

SLC38A5 (UniProt Q8WUX1)
inactive: [1] 0.073 | crizotinib 0.015 | [2] 0.045 | [3] -0.118 | duvelisib 0.073 | gandotinib -0.119 | tozasertib -0.04 | [4] -0.071 | doramapimod 0.004 | ispinesib 0.086 | bafetinib 0.062 | [5] -0.036 | nilotinib 0.002 | [6] -0.017 | dasatinib 0.044 | [7] 0.001 | [8] 0.048 | [9] -0.071 | tipifarnib -0.018 | mubritinib 0.031

SLC30A1 (UniProt Q9Y6M5)
inactive: [1] 0.035 | crizotinib 0.104 | [2] 0.115 | [3] -0.096 | duvelisib 0.081 | gandotinib -0.005 | tozasertib -0.041 | [4] -0.01 | doramapimod -0.001 | ispinesib 0.123 | bafetinib 0.027 | [5] -0.05 | nilotinib 0.015 | [6] -0.024 | dasatinib 0.059 | [7] -0.023 | [8] -0.007 | [9] -0.034 | tipifarnib 0.096 | mubritinib 0.041

SLC29A2 (UniProt Q14542)
inactive: [1] 0.02 | crizotinib 0.061 | [2] -0.121 | [3] -0.133 | duvelisib -0.058 | gandotinib 0.046 | tozasertib -0.165 | [4] -0.046 | doramapimod 0.038 | ispinesib 0.02 | bafetinib 0.035 | [5] -0.057 | nilotinib 0.049 | [6] -0.068 | dasatinib 0.15 | [7] 0.031 | [8] 0.114 | [9] -0.034 | tipifarnib 0.029 | mubritinib 0.003

SLC25A5 (UniProt P05141)
inactive: [1] -0.009 | crizotinib 0.183 | [2] 0.011 | [3] -0.191 | duvelisib 0.005 | gandotinib -0.055 | tozasertib 0.074 | [4] -0.014 | doramapimod -0.023 | ispinesib 0.128 | bafetinib -0.003 | [5] 0.017 | nilotinib 0.05 | [6] 0.006 | dasatinib 0.015 | [7] 0.027 | [8] 0.153 | [9] -0.046 | tipifarnib 0 | mubritinib -0.006

SLC25A13 isoform 2 (UniProt Q9UJS0)
inactive: [1] 0.018 | crizotinib 0.031 | [2] 0.014 | [3] -0.071 | duvelisib -0.019 | gandotinib -0.032 | tozasertib -0.033 | [4] -0.003 | doramapimod 0.007 | ispinesib 0.038 | bafetinib -0.047 | [5] -0.023 | nilotinib -0.023 | [6] 0.019 | dasatinib 0.007 | [7] -0.006 | [8] 0.001 | [9] -0.018 | tipifarnib 0.036 | mubritinib 0.004

SLC35A2 isoform 4 (UniProt P78381)
inactive: [1] 0.016 | crizotinib 0.033 | [2] 0.114 | [3] -0.069 | duvelisib 0.038 | gandotinib -0.02 | tozasertib -0.26 | [4] 0.035 | doramapimod 0.044 | ispinesib 0.026 | bafetinib -0.047 | [5] -0.145 | nilotinib 0.085 | [6] 0.003 | dasatinib -0.214 | [7] -0.04 | [8] 0.061 | [9] -0.04 | tipifarnib 0.08 | mubritinib 0.026

SLC30A6 isoform 2 (UniProt Q6NXT4)
inactive: [1] 0.009 | crizotinib 0.09 | [2] -0.088 | [3] 0.133 | duvelisib 0.069 | gandotinib -0.294 | tozasertib -0.036 | [4] 0.046 | doramapimod -0.052 | ispinesib -0.102 | bafetinib -0.119 | [5] -0.038 | nilotinib -0.091 | [6] 0.05 | dasatinib 0.005 | [7] -0.023 | [8] 0.015 | [9] -0.014 | tipifarnib -0.015 | mubritinib 0.026

SLC25A17 (UniProt O43808)
inactive: [1] 0.023 | crizotinib 0.071 | [2] 0.002 | [3] -0.127 | duvelisib -0.066 | gandotinib 0.024 | tozasertib 0.024 | [4] 0.008 | doramapimod 0.006 | ispinesib 0.052 | bafetinib 0.022 | [5] 0.032 | nilotinib 0.025 | [6] -0.015 | dasatinib -0.016 | [7] 0.003 | [8] 0.038 | [9] -0.002 | tipifarnib -0.056 | mubritinib 0.038

SLC25A37 (UniProt Q9NYZ2)
inactive: [1] 0.038 | crizotinib -0.056 | [2] -0.093 | [3] -0.092 | duvelisib -0.028 | gandotinib -0.048 | tozasertib -0.015 | [4] -0.064 | doramapimod 0.151 | ispinesib 0.046 | bafetinib -0.043 | [5] 0.066 | nilotinib 0.004 | [6] -0.014 | dasatinib 0.03 | [7] 0.007 | [8] 0.082 | [9] -0.061 | tipifarnib 0.029 | mubritinib -0.008

SLC38A1 (UniProt Q9H2H9)
inactive: [1] 0.014 | crizotinib 0.136 | [2] 0.109 | [3] 0 | duvelisib 0.028 | gandotinib -0.13 | tozasertib 0.005 | [4] -0.074 | doramapimod 0.027 | ispinesib -0.038 | bafetinib 0.004 | [5] 0.002 | nilotinib 0.04 | [6] -0.023 | dasatinib 0.067 | [7] 0.001 | [8] -0.007 | [9] -0.011 | tipifarnib -0.009 | mubritinib 0.047

SLC1A4 (UniProt P43007)
inactive: [1] 0.011 | crizotinib 0.106 | [2] 0.061 | [3] -0.202 | duvelisib 0.063 | gandotinib -0.002 | tozasertib -0.055 | [4] -0.105 | doramapimod -0.012 | ispinesib 0.128 | bafetinib -0.01 | [5] -0.053 | nilotinib 0.029 | [6] 0.022 | dasatinib 0.067 | [7] -0.015 | [8] 0.099 | [9] -0.054 | tipifarnib -0.001 | mubritinib 0.07

SLC45A4 isoform 3 (UniProt Q5BKX6)
inactive: [1] 0.23 | crizotinib 0.037 | [2] -0.024 | [3] -0.024 | duvelisib -0.005 | gandotinib 0.011 | tozasertib -0.096 | [4] -0.06 | doramapimod -0.043 | ispinesib -0.045 | bafetinib 0.124 | [5] -0.052 | nilotinib 0.101 | [6] -0.031 | dasatinib 0.084 | [7] 0.026 | [8] 0.112 | [9] -0.05 | tipifarnib 0.114 | mubritinib 0.106

Random excerpt: 2 entries already listed
SLC45A4 isoform 3 (UniProt Q5BKX6)
inactive: [1] 0.23 | crizotinib 0.037 | [2] -0.024 | [3] -0.024 | duvelisib -0.005 | gandotinib 0.011 | tozasertib -0.096 | [4] -0.06 | doramapimod -0.043 | ispinesib -0.045 | bafetinib 0.124 | [5] -0.052 | nilotinib 0.101 | [6] -0.031 | dasatinib 0.084 | [7] 0.026 | [8] 0.112 | [9] -0.05 | tipifarnib 0.114 | mubritinib 0.106

SLC38A5 (UniProt Q8WUX1)
inactive: [1] 0.073 | crizotinib 0.015 | [2] 0.045 | [3] -0.118 | duvelisib 0.073 | gandotinib -0.119 | tozasertib -0.04 | [4] -0.071 | doramapimod 0.004 | ispinesib 0.086 | bafetinib 0.062 | [5] -0.036 | nilotinib 0.002 | [6] -0.017 | dasatinib 0.044 | [7] 0.001 | [8] 0.048 | [9] -0.071 | tipifarnib -0.018 | mubritinib 0.031

Additional records follow:

SLC25A22 (UniProt Q9H936)
inactive: [1] -0.02 | crizotinib 0.079 | [2] 0.02 | [3] -0.06 | duvelisib 0.021 | gandotinib 0.031 | tozasertib -0.051 | [4] -0.046 | doramapimod -0.028 | ispinesib 0.02 | bafetinib -0.048 | [5] -0.077 | nilotinib -0.005 | [6] 0.039 | dasatinib 0.033 | [7] -0.02 | [8] -0.024 | [9] 0.021 | tipifarnib 0.015 | mubritinib 0.022
